PubChem BioAssay AID1487 (National Center for Advancing Translational Sciences (NCATS), 2009)
Several values for one entry are separate records, joined by “and”; a condition that tells them apart may be missing. Identical values can stand only once. The list shows a part of the results. The main result of the screen is listed elsewhere. These columns were measured beside it and carry no call. Compounds called inactive in the main read-out are mostly missing here. Words in brackets tell the shape of the fitted curve; partial curves, single points and poor fits give uncertain potencies.

Assay: qHTS Assay for Modulators of Lamin A Splicing
Conditions: HeLa LMNA splicing GFP/RFP minigene ratio, 48 h
How it was run: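 Read-out is the ratio of GFP to DsRed2 object intensity, acquired by 488 nm laser-scanning cytometry on HeLa lamin A-EGFP minigene reporter cells. Compound incubation 48 hrs at 37 °C in Opti-MEM with 2% FBS; DMSO 0.5% final.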

[1] = measured here: RFP viability control channel
[2] = measured here: GFP splicing reporter channel

SMILES	AC50 [1]	AC50 [2]
COc1ccc([N+](=O)[O-])cc1C1NN=C(c2ccccc2O)S1 (stereo not given)	28.2 µM [falling, single point]	–
COc1ccc(-c2nn(-c3ccccc3)cc2CNC(=O)c2cccc([N+](=O)[O-])c2)cc1	0.355 µM [rising, partial curve]	1.12 µM [rising, single point]
C/C(CC(=O)Nc1ccc(Cl)cc1Cl)=N\NC(N)=S	6.31 µM [falling, single point]	12.6 µM [falling, single point]
C#CCn1c(=O)c2c(ncn2C)n(C)c1=O	–	5.62 µM [falling, partial curve, poor fit]
Cc1ccc(N2C(=O)CC(Sc3nc4ccccc4o3)C2=O)cc1Cl (stereo not given)	35.5 µM [falling, single point]	35.5 µM [falling, single point]
Cc1ccccc1NC(=O)CSc1[nH]c(=O)cc(C)c1C#N	15.8 µM [rising, single point]	–
COc1ccc(C2CC(c3ccccc3)=NN2S(=O)(=O)c2ccccc2)c(OC)c1 (stereo not given)	12.6 µM [rising, partial curve, poor fit]	–
O=C1CCCC(O)=C1C=NCc1ccccc1	10 µM [rising, single point]	–
N#Cc1ccccc1NC(=O)c1ccc2c(Cl)c3c(nc2c1)CCCC3	2 µM [rising, partial curve]	–
Cc1ccccc1Nc1sc(C(=O)c2ccccc2)c(N)c1C(=O)NCc1ccc(Cl)cc1	25.1 µM [falling, single point]	22.4 µM [falling, single point]
C=CCn1c(-c2csc3c2CCC(C)C3)n[nH]c1=S (stereo not given)	22.4 µM [rising, single point]	14.1 µM [rising, partial curve, poor fit]
O=C1C(c2cc(=O)c3ccccc3[nH]2)=C(O)c2ccccc21	35.5 µM [rising, single point]	14.1 µM [rising, partial curve, poor fit]
O=C(O)C(O)C(O)c1nc2ccccc2[nH]1 (stereo not given)	–	35.5 µM [falling, partial curve, poor fit]
COC(=O)c1ccccc1NC(=O)c1cc2ncc(Br)cn2n1	0.0251 µM [rising, full curve, poor fit]	–
CC(=O)c1cccc(NC(=O)c2ccco2)c1	2.51 µM [falling, partial curve, poor fit]	–
CSc1cnn(Cc2ccccc2)c(=O)c1SCc1ccccc1	17.8 µM [rising, single point]	31.6 µM [rising, single point]
O=C(NCCc1ccccc1)C1(c2cccs2)CCOCC1	–	0.002 µM [falling, full curve, poor fit]
Cc1cc(Cl)ccc1OCc1nnc2n1CCCCC2	–	0.0794 µM [falling, full curve, poor fit]
Cc1ccc(NC(=O)CNS(=O)(=O)c2cccs2)cc1F	15.8 µM [rising, partial curve]	11.2 µM [rising, single point]
COc1cccc(C(=O)N2c3nc(-c4ccco4)nn3C3(CCCCC3)[C@@H]3CCCC[C@@H]32)c1	–	28.2 µM [rising, single point]
COC(=O)CNc1cccc(C(F)(F)F)c1	0.282 µM [falling, full curve, poor fit]	–
Cc1ccc(C(O)(c2ccccc2)c2ccccc2C(C)N(C)C)c(C)c1 (stereo not given)	22.4 µM [falling, partial curve]	22.4 µM [falling, single point]
Cc1ccccc1N1CCN(CCCOc2ccc3c(C)cc(=O)oc3c2)CC1	35.5 µM [rising, single point]	–
COCCN1C(=O)N[C@H](c2cccc(C(F)(F)F)c2)C(C(=O)OC)=C1C	11.2 µM [rising, partial curve, poor fit]	10 µM [rising, partial curve, poor fit]
CCCN1C(=O)N(C)C(N(O)C(=O)NC)C1(C)C (stereo not given)	–	31.6 µM [rising, partial curve, poor fit]
CCCn1nc(C(=O)Nc2ccc3nc(C)sc3c2)c2ccccc2c1=O	31.6 µM [rising, single point]	–
CCC(C)NC(=O)C1CCCN(C(=O)Nc2ccc(F)cc2)C1 (stereo not given)	3.55 µM [rising, partial curve]	2.82 µM [rising, partial curve]

SMILES	AC50 [1]	AC50 [2]
Cc1nc(N2CCOCC2)c2c(C(=O)NCCc3ccccc3)c(C)oc2n1	2.51 µM [falling, partial curve, poor fit]	4.47 µM [falling, partial curve, poor fit]
N#C/C(=C(/O)c1ccco1)c1nc2ccccc2s1	35.5 µM [falling, single point]	11.2 µM [falling, single point]
N#C/C(=C\c1ccc(O)c(O)c1)C(=O)NCc1ccccc1	15.8 µM [falling, single point]	0.00112 µM [falling, full curve, poor fit]
O=C(CSc1nnc(Cc2ccccc2)o1)N1CCOCC1	0.501 µM [falling, full curve, poor fit]	0.501 µM [falling, full curve, poor fit]
O=C(Nc1nnc(-c2ccco2)o1)c1ccc2ccccc2c1	22.4 µM [rising, partial curve]	17.8 µM [rising, partial curve]
NC(=O)c1oc2ccccc2c1NC(=O)C1COc2ccccc2O1 (stereo not given)	0.0224 µM [rising, full curve, poor fit]	–
C#C[C@]1(O)CC[C@H]2[C@@H]3CCC4=CC(=O)CC[C@@H]4[C@H]3CC[C@@]21CC	2.82 µM [rising, full curve]	11.2 µM [rising, partial curve, poor fit] and 2.82 µM [rising, full curve]
CSc1ccccc1C(=O)N1CCN(c2cccc(Cl)c2)CC1	0.355 µM [rising, full curve]	–
COc1ccc(-n2c(=O)c(-c3cn(C)c4ccccc34)nc3cnc(N4CCNCC4)nc32)cc1	17.8 µM [falling, partial curve]	20 µM [falling, partial curve]
CC(/C=N/n1cnnc1)=C\c1ccccc1	35.5 µM [falling, single point]	–
CCCN[C@@H](C)C(=O)Nc1ccccc1C	–	0.0251 µM [falling, partial curve, poor fit]
O=C(CCC(=O)N1CC2CCCN2c2ccccc21)NCc1cccc(Cl)c1 (stereo not given)	–	0.0282 µM [falling, full curve, poor fit]
COc1ccc(C)cc1NC(=O)COC(=O)C1CCN(C(=O)c2ccc(Cl)cc2)CC1	0.0447 µM [falling, full curve, poor fit]	0.0126 µM [falling, full curve, poor fit]
Cc1ccc2oc(-c3cccc(NC(=S)NC(=O)/C=C/c4ccco4)c3)nc2c1	12.6 µM [falling, partial curve]	11.2 µM [falling, single point]
CCCC1=[N+](CC(=O)c2ccc(C)cc2)CCn2cccc21	22.4 µM [rising, single point]	–
N#CC(=C(\N)Sc1ccccc1N)/C(C#N)=C(/N)Sc1ccccc1N	0.398 µM [falling, full curve, poor fit]	2.24 µM [falling, partial curve]
COc1cccc(-n2c(SCC(=O)c3c[nH]c4ccccc34)nc3ccccc3c2=O)c1	35.5 µM [rising, single point]	–
Fc1ccc(/C=C\c2nccc3c2[nH]c2ccccc23)cc1	–	22.4 µM [falling, single point]
CN(C)c1ccnc(-c2cccc(NS(C)(=O)=O)c2)n1	15.8 µM [rising, single point]	17.8 µM [rising, single point]
Cc1nc2cc(C(F)(F)F)ccc2n1C	–	0.891 µM [falling, full curve, poor fit]
CC(=O)c1c(C)nn(CC(O)COc2ccc3c(c2)CCC3)c1C (stereo not given)	11.2 µM [rising, partial curve]	–
COc1ccc(NS(=O)(=O)c2ccc3oc(SC4CCOC4=O)nc3c2)cc1 (stereo not given)	8.91 µM [falling, partial curve]	10 µM [falling, partial curve]
COC(=O)c1cc2c([nH]c3ccccc32)c(C)n1	10 µM [rising, partial curve, poor fit]	–
CCOc1cc(NC(=S)NC)c(OCC)cc1NC(=O)c1ccc(OC)cc1	–	0.0631 µM [rising, full curve, poor fit]
CC(C)=N/N=C1/NC(=O)C(CC(=O)Nc2cc(Cl)ccc2C)S1 (stereo not given)	0.0891 µM [rising, full curve, poor fit]	7.08 µM [rising, partial curve, poor fit]
O=C(CN1c2ccccc2Sc2ccccc21)NNC(=S)Nc1ccc(Cl)cc1Cl	20 µM [falling, single point]	25.1 µM [falling, single point]
COc1ccc(/C=C2\CCCC3C2=NN(C(=O)CSc2n[nH]c(N)n2)C3c2ccc(OC)cc2)cc1 (stereo not given)	20 µM [falling, partial curve]	31.6 µM [falling, partial curve, poor fit]
